These are yes or no findings as the source states them, for the method shown. In cells and extracts the contact can be indirect. Binding calls can cover weak binding; strength is not graded here. Where a sequence is shown, tags or fusion partners need not be part of it.
Target: T1, GFP-Aub (Aubergine) (Drosophila) (UniProt O76922)
T1 sequence: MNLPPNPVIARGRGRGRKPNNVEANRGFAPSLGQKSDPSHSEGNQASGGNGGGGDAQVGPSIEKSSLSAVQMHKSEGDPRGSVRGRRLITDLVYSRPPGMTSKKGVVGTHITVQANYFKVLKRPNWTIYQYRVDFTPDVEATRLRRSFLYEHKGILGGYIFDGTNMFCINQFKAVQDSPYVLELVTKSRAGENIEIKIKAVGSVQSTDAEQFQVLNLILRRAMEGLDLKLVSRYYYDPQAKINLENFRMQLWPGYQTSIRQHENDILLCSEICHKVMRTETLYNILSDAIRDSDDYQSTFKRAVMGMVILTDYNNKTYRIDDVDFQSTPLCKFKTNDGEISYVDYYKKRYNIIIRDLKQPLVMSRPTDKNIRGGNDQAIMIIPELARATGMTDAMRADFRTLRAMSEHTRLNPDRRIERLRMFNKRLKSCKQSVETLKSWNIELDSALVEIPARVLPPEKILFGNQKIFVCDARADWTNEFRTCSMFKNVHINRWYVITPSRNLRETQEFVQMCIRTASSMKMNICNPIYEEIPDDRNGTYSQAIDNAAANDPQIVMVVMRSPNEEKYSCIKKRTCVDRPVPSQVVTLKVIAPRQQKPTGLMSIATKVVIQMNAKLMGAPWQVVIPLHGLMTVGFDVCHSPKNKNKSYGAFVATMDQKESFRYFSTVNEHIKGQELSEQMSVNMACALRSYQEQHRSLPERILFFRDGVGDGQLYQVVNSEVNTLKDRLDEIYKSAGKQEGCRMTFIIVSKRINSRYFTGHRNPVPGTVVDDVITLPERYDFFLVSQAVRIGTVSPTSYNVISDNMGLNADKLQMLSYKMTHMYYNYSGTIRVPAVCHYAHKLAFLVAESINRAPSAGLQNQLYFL
Assay: co-IP; ovarian extracts (60 ovaries, 3-day-old females) in DXB-150 (25 mM Hepes-KOH pH 6.8, 250 mM sucrose, 1 mM MgCl2, 1 mM DTT, 150 mM NaCl, 0.1% Triton X-100) with RNase inhibitor or RNase A; IP with mouse anti-GFP (3E6) on Dynabeads Protein G, 3 h at 4°C; Western blot; wild-type extract as mock IP

By UniProt entry, the sequences of proteins in these tests, tags left out. Where a name states a change or a piece, a line headed by the entry shows the natural chain unless it says otherwise.
UniProt A0A0B4KEC4: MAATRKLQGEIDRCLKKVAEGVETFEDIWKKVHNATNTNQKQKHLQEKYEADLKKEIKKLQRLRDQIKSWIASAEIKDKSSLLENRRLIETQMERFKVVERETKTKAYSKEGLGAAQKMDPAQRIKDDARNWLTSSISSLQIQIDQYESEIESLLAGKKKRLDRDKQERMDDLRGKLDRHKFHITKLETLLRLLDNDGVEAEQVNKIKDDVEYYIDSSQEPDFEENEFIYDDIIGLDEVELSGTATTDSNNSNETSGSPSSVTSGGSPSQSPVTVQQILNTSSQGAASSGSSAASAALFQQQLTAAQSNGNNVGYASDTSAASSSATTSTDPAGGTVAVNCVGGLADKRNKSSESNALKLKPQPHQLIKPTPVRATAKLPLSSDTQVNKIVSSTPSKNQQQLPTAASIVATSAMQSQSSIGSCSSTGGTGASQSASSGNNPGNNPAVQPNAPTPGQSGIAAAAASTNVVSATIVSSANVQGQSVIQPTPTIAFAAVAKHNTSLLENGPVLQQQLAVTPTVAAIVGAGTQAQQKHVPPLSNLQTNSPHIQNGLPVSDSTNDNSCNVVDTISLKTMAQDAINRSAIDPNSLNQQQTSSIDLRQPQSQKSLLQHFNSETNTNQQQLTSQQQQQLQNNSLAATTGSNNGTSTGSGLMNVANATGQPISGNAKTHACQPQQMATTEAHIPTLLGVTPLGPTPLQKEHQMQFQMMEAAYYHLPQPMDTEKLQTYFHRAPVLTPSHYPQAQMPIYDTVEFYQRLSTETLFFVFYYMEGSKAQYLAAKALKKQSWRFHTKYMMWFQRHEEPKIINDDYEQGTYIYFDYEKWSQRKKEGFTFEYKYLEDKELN

Row | Substance | binding
1 | CCR4 (Drosophila (endogenous in ovaries)) (enzyme) | binds
2 | NOT3 (from UniProt A0A0B4KEC4) | binds

— publication PMC5666619
